Reference: PubChem BioAssay AID504744 (Drosophila RNAi Screening Center, 2011)
Purpose: 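Identify dsRNAs that increase or decrease phospho-dAkt after insulin treatment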 (primary screen). Cells: Drosophila Kc167 cells. Reagent: long dsRNA against Drosophila genes, 250 ng dsRNA per well of a 384-well plate. Time to read-out: 3 days of knock-down, then overnight serum-free starvation before stimulation. Challenge: bovine insulin at 387 nM for 10 minutes after 12 h without serum. Measurement: 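Per-well phospho-dAkt level from an in-cell fluorescent antibody stain, divided by a DNA-dye signal; log2 residuals turned into z-scores that take cell number into account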. Hit rule: 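Under insulin, a gene counts as a hit if the average z-score of two replicates lies above 2.5 or below -2.5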.
The deposit covers about 23,000 reagents; below is an unselected part of those with a known target gene and a result. Of all reagents, 98 (0.43%) are marked active. 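Only hit calls are given; the phospho-dAkt signals, z-scores and hit direction were not deposited.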 A plus sign joins genes that one reagent is predicted to hit. Reagent sequences are not shown.

CG30268 [DRSC21983] — outcome = inactive
CG6204 [DRSC15991] — outcome = inactive
CG14118 [DRSC10122] — outcome = inactive
CG15115 [DRSC06537] — outcome = inactive
CG11893 [DRSC14429] — outcome = inactive
tplus3a + tplus3b [DRSC03687] — outcome = inactive
Plp [DRSC10006] — outcome = inactive
Plp [DRSC10333] — outcome = inactive
Plp [DRSC10700] — outcome = inactive
piwi [DRSC03592] — outcome = inactive
Ets97D [DRSC16665] — outcome = inactive
CG14294 [DRSC14774] — outcome = inactive
BBS1 [DRSC10196] — outcome = inactive
Ser12 [DRSC00786] — outcome = inactive
cry [DRSC16928] — outcome = inactive
Neos [DRSC11235] — outcome = inactive
jdp [DRSC16975] — outcome = inactive
SuUR [DRSC11292] — outcome = inactive
CG15093 [DRSC06522] — outcome = inactive
Pex19 [DRSC02839] — outcome = inactive

The list goes on; the last 4 above are carried over.
jdp [DRSC16975] — outcome = inactive
SuUR [DRSC11292] — outcome = inactive
CG15093 [DRSC06522] — outcome = inactive
Pex19 [DRSC02839] — outcome = inactive
Cyp313a3 [DRSC16626] — outcome = inactive
Acbp4 [DRSC11023] — outcome = inactive
CG15651 [DRSC04242] — outcome = inactive
CG8388 [DRSC07157] — outcome = inactive
CG34188 [DRSC05549] — outcome = inactive
vas (retired record) [DRSC22007] — outcome = inactive
Dhdds [DRSC17756] — outcome = inactive
Cap-G [DRSC06652] — outcome = inactive
Cap-G [DRSC06653] — outcome = inactive
Cap-G [DRSC21805] — outcome = inactive
a6 [DRSC18733] — outcome = inactive
Pfdn4 [DRSC09761] — outcome = inactive
escl [DRSC02828] — outcome = inactive
d-cup [DRSC14846] — outcome = inactive
CG1602 [DRSC06601] — outcome = inactive
Cpsf100 [DRSC14146] — outcome = inactive
CG43345 [DRSC03164] — outcome = inactive
Ugalt [DRSC18467] — outcome = inactive
CG33468 [DRSC22940] — outcome = inactive
CG10366 [DRSC02046] — outcome = inactive
CG13585 [DRSC04221] — outcome = inactive
sl [DRSC20377] — outcome = inactive
sl [DRSC21782] — outcome = inactive
trx [DRSC17089] — outcome = inactive
alph [DRSC15398] — outcome = inactive
CG18269 [DRSC02660] — outcome = inactive
CG15522 [DRSC15059] — outcome = inactive
CG15344 (retired record) [DRSC18029] — outcome = inactive
IRSp53 [DRSC10891] — outcome = inactive
CG34202 [DRSC05907] — outcome = inactive
grn [DRSC12666] — outcome = inactive
grn [DRSC16961] — outcome = inactive
CG4770 [DRSC15639] — outcome = inactive
PIG-A [DRSC06982] — outcome = inactive
Magi [DRSC04247] — outcome = inactive
Magi [DRSC04451] — outcome = inactive
Vps45 [DRSC16398] — outcome = inactive
